Measured values: publication PMC5915600
No constants are given. Whether binding was seen depends on the method and setting. For some assays here: Binding seen in cells or lysates may run through a third protein. Some entries that bind do so weakly or less than the wild type. For some assays here: Where a sequence is shown, tags or fusion partners need not be part of it.

Protein sequences, listed by entry. Tags and fused reporters are not part of them.
UniProt P26358: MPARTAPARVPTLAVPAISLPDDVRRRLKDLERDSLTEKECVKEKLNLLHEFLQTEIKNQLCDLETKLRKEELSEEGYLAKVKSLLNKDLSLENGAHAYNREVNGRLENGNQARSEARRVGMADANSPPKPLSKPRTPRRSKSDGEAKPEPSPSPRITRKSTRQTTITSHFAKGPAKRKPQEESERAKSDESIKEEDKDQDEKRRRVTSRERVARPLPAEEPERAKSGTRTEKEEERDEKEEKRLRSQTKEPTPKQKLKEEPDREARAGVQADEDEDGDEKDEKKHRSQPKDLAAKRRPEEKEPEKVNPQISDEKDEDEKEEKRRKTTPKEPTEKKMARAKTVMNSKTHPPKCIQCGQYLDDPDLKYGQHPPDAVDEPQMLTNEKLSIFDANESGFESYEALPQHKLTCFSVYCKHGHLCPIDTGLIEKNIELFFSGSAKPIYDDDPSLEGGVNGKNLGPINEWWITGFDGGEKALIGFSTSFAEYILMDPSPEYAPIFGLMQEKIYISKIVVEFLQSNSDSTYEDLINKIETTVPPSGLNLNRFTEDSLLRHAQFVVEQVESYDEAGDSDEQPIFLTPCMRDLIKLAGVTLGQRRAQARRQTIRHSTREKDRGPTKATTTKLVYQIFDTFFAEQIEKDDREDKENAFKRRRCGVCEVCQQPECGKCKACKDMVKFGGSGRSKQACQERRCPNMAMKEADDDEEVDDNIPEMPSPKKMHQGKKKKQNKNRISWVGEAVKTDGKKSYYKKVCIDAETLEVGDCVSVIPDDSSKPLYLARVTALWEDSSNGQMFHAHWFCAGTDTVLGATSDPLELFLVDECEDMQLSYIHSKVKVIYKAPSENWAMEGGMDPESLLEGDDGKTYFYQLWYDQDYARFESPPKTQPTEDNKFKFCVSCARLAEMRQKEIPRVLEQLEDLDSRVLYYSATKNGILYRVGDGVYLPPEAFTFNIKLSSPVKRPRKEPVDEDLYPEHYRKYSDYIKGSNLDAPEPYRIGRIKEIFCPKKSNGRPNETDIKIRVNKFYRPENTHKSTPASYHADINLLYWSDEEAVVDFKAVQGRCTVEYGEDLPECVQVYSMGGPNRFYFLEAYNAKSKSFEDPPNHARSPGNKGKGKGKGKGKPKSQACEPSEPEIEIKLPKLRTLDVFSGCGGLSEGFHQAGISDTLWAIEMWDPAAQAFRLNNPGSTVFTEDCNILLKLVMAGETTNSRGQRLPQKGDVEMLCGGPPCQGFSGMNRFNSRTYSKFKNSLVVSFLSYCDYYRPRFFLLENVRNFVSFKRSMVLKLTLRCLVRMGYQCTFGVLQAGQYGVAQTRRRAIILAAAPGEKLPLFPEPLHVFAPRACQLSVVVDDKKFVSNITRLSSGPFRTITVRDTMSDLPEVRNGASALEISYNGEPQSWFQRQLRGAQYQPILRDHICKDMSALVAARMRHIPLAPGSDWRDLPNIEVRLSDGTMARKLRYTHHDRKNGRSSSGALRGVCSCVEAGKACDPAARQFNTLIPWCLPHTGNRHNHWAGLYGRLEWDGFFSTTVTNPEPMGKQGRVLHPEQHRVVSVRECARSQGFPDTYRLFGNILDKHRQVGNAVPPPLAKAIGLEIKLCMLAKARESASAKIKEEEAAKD
UniProt Q01094: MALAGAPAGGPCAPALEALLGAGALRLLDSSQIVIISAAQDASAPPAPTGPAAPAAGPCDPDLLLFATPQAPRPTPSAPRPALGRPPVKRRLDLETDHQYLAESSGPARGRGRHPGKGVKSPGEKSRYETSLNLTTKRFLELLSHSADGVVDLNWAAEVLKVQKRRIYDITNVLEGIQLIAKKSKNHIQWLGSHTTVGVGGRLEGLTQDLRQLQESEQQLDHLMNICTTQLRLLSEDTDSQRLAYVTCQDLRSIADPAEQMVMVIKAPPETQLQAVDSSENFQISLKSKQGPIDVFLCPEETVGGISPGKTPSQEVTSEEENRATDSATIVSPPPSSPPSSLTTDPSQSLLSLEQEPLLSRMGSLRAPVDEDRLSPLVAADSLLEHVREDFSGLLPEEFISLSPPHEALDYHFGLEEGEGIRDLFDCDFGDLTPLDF

Tests used:
[1] = molecular target: DNA (cytosine-5)-methyltransferase 1 (DNMT1), endogenous (human (endogenous in HCT116)) (UniProt P26358); experiment: co-IP; endogenous proteins, HCT116 synchronized at the G1/S border by thymidine and aphidicolin, 0-9 h after release
[2] = molecular target: DNA (cytosine-5)-methyltransferase 1 (DNMT1), endogenous (human (endogenous in HCT116)) (UniProt P26358); experiment: co-IP; endogenous proteins, HCT116 synchronized at the G1/S border by thymidine and aphidicolin, 10-12 h after release (late S and early G2)
[3] = molecular target: DNA (cytosine-5)-methyltransferase 1 (DNMT1), endogenous (human (endogenous in HCT116)) (UniProt P26358); experiment: co-IP; endogenous proteins immunoprecipitated from HCT116 lysates (0.5% NP40, 50 mM Tris pH 7.5, 150 mM NaCl; usually 500 μg lysate; Protein A-Sepharose), western blot; in some panels cells with SET7 expression, SET7 or PHF20L1 siRNA, MG132 5 μg/ml for the last 6 h
[4] = molecular target: E2F1, endogenous (human (endogenous in HCT116)) (UniProt Q01094); experiment: as above
[5] = molecular target: DNA (cytosine-5)-methyltransferase 1 (DNMT1), endogenous (human (endogenous in HCT116)) (UniProt P26358); experiment: co-IP; one partner a Flag- or HA-tagged construct expressed in HCT116 (transient or stable), the other endogenous; NP40 lysis buffer, western blot; in some panels SET7 co-expressed or MG132 for the last 6 h
[6] = molecular target: DNA (cytosine-5)-methyltransferase 1 (DNMT1), endogenous (human (endogenous in HCT116)) (UniProt P26358); experiment: condition: only 10–12 h after release from the G1/S border; co-IP; endogenous proteins, HCT116 synchronized at the G1/S border by thymidine and aphidicolin, 10-12 h after release (late S and early G2)
[7] = molecular target: T1, cognate unmethylated K142 peptide of DNMT1 (human); experiment: pull-down; DNMT1 K142me1 or K142me0 peptide on Sulfolink resin, pre-blocked with 5 μg GST for 2 h, then 1.5 μg GST fusion protein in 0.1% NP40, 50 mM Tris-Cl pH 7.5, 150 mM NaCl at 4 °C; western blot; both purified
T1 sequence (peptide, coupled to Sulfolink resin through the C-terminal cysteine): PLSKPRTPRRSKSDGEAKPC

B1: L3MBTL3, endogenous (protein, UniProt Q96JM7 1-780)
chain: MTESASSTSGQEFDVFSVMDWKDGVGTLPGSDLKFRVNEFGALEVITDENEMENVKKATATTTWMVPTAQEAPTSPPSSRPVFPPAYWTSPPGCPTVFSEKTGMPFRLKDPVKVEGLQFCENCCQYGNVDECLSGGNYCSQNCARHIKDKDQKEERDVEEDNEEEDPKCSRKKKPKLSLKADTKEDGEERDDEMENKQDVRILRGSQRARRKRRGDSAVLKQGLPPKGKKAWCWASYLEEEKAVAVPAKLFKEHQSFPYNKNGFKVGMKLEGVDPEHQSVYCVLTVAEVCGYRIKLHFDGYSDCYDFWVNADALDIHPVGWCEKTGHKLHPPKGYKEEEFNWQTYLKTCKAQAAPKSLFENQNITVIPSGFRVGMKLEAVDKKNPSFICVATVTDMVDNRFLVHFDNWDESYDYWCEASSPHIHPVGWCKEHRRTLITPPGYPNVKHFSWDKYLEETNSLPAPARAFKVKPPHGFQKKMKLEVVDKRNPMFIRVATVADTDDHRVKVHFDGWNNCYDYWIDADSPDIHPVGWCSKTGHPLQPPLSPLELMEASEHGGCSTPGCKGIGHFKRARHLGPHSAANCPYSEINLNKDRIFPDRLSGEMPPASPSFPRNKRTDANESSSSPEIRDQHADDVKEDFEERTESEMRTSHEARGAREEPTVQQAQRRSAVFLSFKSPIPCLPLRWEQQSKLLPTVAGIPASKVSKWSTDEVSEFIQSLPGCEEHGKVFKDEQIDGEAFLLMTQTDIVKIMSIKLGPALKIFNSILMFKAAEKNSHNEL
- binding [1]: binds weakly
- binding [2]: binds
- binding [3]: binds
- binding [4]: binds

B2: HA-tagged L3MBTL3 wild-type (full length 1-780) (protein, UniProt Q96JM7 1-780)
chain: B1 chain
- binding [5]: binds

B3: PHF20L1, endogenous (protein, UniProt A8MW92 1-1017)
chain: MSKKPPNRPGITFEIGARLEALDYLQKWYPSRIEKIDYEEGKMLVHFERWSHRYDEWIYWDSNRLRPLERPALRKEGLKDEEDFFDFKAGEEVLARWTDCRYYPAKIEAINKEGTFTVQFYDGVIRCLKRMHIKAMPEDAKGQVKSQHPLSWCCPIDPAGSCNQSMGSEDWIALVKAAAAAAAKNKTGSKPRTSANSNKDKDKDERKWFKVPSKKEETSTCIATPDVEKKEDLPTSSETFGLHVENVPKMVFPQPESTLSNKRKNNQGNSFQAKRARLNKITGLLASKAVGVDGAEKKEDYNETAPMLEQAISPKPQSQKKNEADISSSANTQKPALLSSTLSSGKARSKKCKHESGDSSGCIKPPKSPLSPELIQVEDLTLVSQLSSSVINKTSPPQPVNPPRPFKHSERRRRSQRLATLPMPDDSVEKVSSPSPATDGKVFSISSQNQQESSVPEVPDVAHLPLEKLGPCLPLDLSRGSEVTAPVASDSSYRNECPRAEKEDTQMLPNPSSKAIADGRGAPAAAGISKTEKKVKLEDKSSTAFGKRKEKDKERREKRDKDHYRPKQKKKKKKKKKSKQHDYSDYEDSSLEFLERCSSPLTRSSGSSLASRSMFTEKTTTYQYPRAILSVDLSGENLSDVDFLDDSSTESLLLSGDEYNQDFDSTNFEESQDEDDALNEIVRCICEMDEENGFMIQCEECLCWQHSVCMGLLEESIPEQYICYICRDPPGQRWSAKYRYDKEWLNNGRMCGLSFFKENYSHLNAKKIVSTHHLLADVYGVTEVLHGLQLKIGILKNKHHPDLHLWACSGKRKDQDQIIAGVEKKIAQDTVNREEKKYVQNHKEPPRLPLKMEGTYITSEHSYQKPQSFGQDCKSLADPGSSDDDDVSSLEEEQEFHMRSKNSLQYSAKEHGMPEKNPAEGNTVFVYNDKKGTEDPGDSHLQWQLNLLTHIENVQNEVTSRMDLIEKEVDVLESWLDFTGELEPPDPLARLPQLKRHIKQLLIDMGKVQQIATLCSV
- binding [1]: binds
- binding [6]: no binding

B4: GST-L3MBTL1 (protein, UniProt Q9Y468 1-840)
chain: MHLVAGDSPGSGPHLPATAFIIPASSATLGLPSSALDVSCFPREPIHVGAPEQVAGCEPVSATVLPQLSAGPASSSTSTVRLLEWTEAAAPPPGGGLRFRISEYKPLNMAGVEQPPSPELRQEGVTEYEDGGAPAGDGEAGPQQAEDHPQNPPEDPNQDPPEDDSTCQCQACGPHQAAGPDLGSSNDGCPQLFQERSVIVENSSGSTSASELLKPMKKRKRREYQSPSEEESEPEAMEKQEEGKDPEGQPTASTPESEEWSSSQPATGEKKECWSWESYLEEQKAITAPVSLFQDSQAVTHNKNGFKLGMKLEGIDPQHPSMYFILTVAEVCGYRLRLHFDGYSECHDFWVNANSPDIHPAGWFEKTGHKLQPPKGYKEEEFSWSQYLRSTRAQAAPKHLFVSQSHSPPPLGFQVGMKLEAVDRMNPSLVCVASVTDVVDSRFLVHFDNWDDTYDYWCDPSSPYIHPVGWCQKQGKPLTPPQDYPDPDNFCWEKYLEETGASAVPTWAFKVRPPHSFLVNMKLEAVDRRNPALIRVASVEDVEDHRIKIHFDGWSHGYDFWIDADHPDIHPAGWCSKTGHPLQPPLGPREPSSASPGGCPPLSYRSLPHTRTSKYSFHHRKCPTPGCDGSGHVTGKFTAHHCLSGCPLAERNQSRLKAELSDSEASARKKNLSGFSPRKKPRHHGRIGRPPKYRKIPQEDFQTLTPDVVHQSLFMSALSAHPDRSLSVCWEQHCKLLPGVAGISASTVAKWTIDEVFGFVQTLTGCEDQARLFKDEARIVRVTHVSGKTLVWTVAQLGDLVCSDHLQEGKGILETGVHSLLCSLPTHLLAKLSFASDSQY
- binding [7]: no binding (tested: 1.5 μg)
